# This is one part of the list.
# By UniProt entry, the sequences of proteins in these tests, tags left out. Where a name states a change or a piece, a line headed by the entry shows the natural chain unless it says otherwise.
# UniProt O43169: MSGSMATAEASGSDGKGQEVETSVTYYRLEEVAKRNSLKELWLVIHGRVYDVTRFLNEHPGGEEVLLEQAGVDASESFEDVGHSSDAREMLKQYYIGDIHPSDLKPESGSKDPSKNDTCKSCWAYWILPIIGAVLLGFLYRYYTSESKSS
# UniProt Q2TBE0: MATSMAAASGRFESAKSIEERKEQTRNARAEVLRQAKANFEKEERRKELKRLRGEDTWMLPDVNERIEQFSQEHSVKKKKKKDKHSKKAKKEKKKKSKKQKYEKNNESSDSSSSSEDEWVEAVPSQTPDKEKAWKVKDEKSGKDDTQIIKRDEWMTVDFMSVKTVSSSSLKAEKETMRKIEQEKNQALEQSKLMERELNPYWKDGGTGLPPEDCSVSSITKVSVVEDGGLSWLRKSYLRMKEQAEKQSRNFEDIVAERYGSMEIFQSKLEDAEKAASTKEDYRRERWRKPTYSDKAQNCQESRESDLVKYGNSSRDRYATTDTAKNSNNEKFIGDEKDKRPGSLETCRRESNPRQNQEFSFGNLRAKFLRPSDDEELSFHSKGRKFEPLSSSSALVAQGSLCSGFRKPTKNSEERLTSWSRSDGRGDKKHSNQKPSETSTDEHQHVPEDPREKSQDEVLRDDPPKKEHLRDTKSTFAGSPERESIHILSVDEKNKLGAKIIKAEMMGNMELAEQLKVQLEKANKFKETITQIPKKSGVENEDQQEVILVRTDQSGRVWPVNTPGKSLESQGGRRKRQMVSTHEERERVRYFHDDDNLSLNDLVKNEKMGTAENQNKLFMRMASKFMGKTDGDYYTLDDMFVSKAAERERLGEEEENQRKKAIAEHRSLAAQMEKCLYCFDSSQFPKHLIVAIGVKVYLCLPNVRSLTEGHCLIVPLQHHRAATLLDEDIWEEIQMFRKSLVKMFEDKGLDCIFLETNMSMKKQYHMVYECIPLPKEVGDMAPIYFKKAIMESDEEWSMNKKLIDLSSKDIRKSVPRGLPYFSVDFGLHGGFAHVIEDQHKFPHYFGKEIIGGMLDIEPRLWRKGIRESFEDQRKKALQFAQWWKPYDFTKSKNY
# UniProt Q05048: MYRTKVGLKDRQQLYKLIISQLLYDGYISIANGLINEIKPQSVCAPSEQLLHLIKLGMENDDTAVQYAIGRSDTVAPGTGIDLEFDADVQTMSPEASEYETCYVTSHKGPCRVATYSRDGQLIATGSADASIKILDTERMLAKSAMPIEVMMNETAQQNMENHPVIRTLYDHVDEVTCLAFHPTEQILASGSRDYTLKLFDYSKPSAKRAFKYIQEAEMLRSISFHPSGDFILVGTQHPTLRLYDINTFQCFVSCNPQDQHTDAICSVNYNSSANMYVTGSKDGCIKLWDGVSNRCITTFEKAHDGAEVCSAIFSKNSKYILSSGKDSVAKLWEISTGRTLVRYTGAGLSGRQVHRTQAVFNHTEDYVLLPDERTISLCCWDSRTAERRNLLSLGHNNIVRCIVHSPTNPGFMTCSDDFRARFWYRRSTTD
# UniProt Q93034, whole entry, looked up: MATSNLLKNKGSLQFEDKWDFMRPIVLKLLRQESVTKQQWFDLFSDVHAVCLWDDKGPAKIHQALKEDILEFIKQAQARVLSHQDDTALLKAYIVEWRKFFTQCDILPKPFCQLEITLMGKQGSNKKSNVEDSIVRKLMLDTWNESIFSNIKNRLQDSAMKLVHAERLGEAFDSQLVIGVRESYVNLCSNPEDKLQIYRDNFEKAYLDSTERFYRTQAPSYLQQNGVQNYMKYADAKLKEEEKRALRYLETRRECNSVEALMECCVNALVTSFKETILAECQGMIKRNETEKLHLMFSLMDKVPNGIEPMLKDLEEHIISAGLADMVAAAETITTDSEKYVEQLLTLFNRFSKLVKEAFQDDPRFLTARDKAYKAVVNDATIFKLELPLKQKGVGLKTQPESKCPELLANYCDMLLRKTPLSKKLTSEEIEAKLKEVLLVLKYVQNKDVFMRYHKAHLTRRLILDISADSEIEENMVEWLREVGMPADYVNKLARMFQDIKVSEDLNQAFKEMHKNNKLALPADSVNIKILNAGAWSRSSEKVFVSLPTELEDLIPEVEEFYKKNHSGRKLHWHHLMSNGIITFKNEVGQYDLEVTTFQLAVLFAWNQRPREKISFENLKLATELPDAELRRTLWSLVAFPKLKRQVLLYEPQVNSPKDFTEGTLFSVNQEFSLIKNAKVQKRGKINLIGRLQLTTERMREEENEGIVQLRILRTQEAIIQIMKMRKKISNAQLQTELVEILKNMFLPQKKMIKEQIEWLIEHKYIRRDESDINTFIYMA
# UniProt O60888: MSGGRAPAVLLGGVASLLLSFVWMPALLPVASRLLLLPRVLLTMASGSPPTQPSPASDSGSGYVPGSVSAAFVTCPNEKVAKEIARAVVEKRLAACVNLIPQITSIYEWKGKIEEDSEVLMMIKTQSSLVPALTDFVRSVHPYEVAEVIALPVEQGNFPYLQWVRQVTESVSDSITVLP
# UniProt O75575: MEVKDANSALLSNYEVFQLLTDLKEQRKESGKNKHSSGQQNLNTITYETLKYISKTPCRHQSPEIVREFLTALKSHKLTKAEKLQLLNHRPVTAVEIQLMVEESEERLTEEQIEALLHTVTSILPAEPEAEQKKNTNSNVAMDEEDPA
# UniProt P68400, whole entry, looked up: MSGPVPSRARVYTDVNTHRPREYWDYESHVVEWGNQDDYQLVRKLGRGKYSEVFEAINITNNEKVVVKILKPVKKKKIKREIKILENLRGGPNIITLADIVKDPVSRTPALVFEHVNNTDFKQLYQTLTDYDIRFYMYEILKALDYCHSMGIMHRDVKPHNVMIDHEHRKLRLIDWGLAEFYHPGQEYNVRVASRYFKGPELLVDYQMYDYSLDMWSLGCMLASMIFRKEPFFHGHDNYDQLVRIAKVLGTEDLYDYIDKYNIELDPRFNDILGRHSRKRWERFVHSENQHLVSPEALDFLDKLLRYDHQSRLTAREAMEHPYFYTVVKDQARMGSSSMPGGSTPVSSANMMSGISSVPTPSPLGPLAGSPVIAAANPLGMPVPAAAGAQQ
# UniProt P08574: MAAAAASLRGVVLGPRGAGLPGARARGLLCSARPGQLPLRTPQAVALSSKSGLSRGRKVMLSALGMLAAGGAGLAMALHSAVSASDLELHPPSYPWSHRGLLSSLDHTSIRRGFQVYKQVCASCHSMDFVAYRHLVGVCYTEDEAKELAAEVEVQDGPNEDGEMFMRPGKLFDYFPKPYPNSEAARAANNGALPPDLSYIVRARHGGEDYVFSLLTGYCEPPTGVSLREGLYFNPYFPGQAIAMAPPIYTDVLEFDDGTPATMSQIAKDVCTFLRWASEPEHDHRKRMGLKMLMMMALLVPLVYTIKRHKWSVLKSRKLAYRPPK
# UniProt Q9H467: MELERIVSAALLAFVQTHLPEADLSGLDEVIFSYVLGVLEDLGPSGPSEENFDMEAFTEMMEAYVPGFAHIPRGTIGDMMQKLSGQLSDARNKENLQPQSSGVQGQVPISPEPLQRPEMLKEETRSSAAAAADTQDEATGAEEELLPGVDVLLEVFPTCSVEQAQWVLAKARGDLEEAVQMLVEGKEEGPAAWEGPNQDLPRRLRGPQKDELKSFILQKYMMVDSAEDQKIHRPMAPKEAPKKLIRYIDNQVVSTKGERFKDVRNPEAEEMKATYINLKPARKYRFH
# UniProt Q14247: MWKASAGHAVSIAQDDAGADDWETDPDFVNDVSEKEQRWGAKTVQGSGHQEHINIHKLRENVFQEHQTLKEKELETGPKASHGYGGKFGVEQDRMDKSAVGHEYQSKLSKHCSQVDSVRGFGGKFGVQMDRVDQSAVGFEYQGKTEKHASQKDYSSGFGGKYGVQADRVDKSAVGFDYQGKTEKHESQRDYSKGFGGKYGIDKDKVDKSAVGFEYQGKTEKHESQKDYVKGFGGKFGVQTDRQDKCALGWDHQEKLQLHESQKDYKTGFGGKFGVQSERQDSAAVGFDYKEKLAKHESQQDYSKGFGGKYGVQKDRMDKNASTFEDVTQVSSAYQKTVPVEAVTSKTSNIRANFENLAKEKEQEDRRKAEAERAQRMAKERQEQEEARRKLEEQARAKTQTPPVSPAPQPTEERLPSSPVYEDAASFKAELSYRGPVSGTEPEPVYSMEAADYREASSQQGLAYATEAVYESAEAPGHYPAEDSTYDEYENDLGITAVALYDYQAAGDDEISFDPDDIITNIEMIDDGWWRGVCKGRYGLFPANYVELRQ
# UniProt P99999: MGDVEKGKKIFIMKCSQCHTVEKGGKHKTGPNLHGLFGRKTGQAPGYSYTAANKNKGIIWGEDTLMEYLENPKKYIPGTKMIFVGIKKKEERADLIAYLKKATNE
# UniProt Q9NTM9: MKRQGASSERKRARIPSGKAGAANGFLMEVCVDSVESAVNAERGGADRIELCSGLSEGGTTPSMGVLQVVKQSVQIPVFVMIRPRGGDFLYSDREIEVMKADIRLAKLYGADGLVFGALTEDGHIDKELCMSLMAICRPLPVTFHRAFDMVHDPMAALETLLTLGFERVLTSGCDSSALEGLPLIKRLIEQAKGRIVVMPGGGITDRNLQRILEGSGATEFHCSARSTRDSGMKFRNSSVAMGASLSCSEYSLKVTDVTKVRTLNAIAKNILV
# UniProt P48729: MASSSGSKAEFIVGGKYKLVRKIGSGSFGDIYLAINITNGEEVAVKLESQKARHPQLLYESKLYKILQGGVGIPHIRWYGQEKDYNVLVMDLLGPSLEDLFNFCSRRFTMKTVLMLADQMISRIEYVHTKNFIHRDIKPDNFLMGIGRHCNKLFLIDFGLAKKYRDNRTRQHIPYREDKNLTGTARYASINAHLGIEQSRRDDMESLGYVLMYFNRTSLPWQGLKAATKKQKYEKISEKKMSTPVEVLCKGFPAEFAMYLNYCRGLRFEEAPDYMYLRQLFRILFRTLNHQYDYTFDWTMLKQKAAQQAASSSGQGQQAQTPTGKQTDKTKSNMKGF
# UniProt Q6UUV9: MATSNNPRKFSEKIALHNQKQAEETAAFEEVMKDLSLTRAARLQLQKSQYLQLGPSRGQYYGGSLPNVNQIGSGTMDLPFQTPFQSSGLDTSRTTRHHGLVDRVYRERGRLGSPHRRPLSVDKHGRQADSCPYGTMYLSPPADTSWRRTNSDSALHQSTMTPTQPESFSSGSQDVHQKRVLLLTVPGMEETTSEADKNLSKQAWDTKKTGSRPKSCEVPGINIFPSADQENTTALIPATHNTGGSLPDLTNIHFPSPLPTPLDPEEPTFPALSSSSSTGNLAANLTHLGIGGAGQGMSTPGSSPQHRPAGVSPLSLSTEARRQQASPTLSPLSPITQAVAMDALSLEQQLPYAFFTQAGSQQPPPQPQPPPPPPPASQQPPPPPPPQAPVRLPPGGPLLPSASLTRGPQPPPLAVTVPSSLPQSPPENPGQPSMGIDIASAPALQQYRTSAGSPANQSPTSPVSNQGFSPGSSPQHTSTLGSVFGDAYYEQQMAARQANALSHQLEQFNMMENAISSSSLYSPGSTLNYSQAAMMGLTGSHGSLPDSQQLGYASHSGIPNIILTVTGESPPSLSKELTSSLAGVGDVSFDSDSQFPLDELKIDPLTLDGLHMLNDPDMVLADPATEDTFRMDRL
# UniProt P53634: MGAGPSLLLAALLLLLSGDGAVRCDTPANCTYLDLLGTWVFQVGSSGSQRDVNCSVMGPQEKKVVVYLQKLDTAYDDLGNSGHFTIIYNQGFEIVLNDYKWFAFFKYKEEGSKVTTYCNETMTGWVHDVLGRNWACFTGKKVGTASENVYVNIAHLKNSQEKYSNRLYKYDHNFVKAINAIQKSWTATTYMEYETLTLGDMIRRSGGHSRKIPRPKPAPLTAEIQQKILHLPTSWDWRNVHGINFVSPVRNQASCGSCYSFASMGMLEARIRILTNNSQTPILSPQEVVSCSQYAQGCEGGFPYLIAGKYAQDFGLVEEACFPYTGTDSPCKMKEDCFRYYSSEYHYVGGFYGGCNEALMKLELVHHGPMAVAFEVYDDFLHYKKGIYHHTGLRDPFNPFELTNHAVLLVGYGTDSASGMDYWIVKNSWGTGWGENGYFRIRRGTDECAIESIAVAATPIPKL
# UniProt Q70SY1: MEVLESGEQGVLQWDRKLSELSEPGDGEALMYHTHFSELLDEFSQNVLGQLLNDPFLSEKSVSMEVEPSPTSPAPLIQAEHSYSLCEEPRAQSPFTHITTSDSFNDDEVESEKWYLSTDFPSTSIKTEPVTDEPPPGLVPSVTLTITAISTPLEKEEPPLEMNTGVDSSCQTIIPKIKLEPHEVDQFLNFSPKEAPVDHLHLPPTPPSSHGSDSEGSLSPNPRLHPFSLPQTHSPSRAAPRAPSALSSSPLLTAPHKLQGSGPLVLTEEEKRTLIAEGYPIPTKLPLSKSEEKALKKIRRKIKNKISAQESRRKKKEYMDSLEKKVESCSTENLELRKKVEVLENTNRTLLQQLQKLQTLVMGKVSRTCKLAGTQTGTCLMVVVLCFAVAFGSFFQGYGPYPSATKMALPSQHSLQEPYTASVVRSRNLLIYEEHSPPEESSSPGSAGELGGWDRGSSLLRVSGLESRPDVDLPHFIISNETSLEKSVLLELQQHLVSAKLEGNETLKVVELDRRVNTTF
# Columns and labels:
# Assay in all cases: log2 fold change, soluble protein after heating vs DMSO (PISA); higher = thermal stabilisation; K562 lysate, 10 uM; active = over 0.2 and 3.5 SD of the protein, either way, in both replicates (recomputed)
# erlotinib = compound: C#Cc1cccc(Nc2ncnc3cc(OCCOC)c(OCCOC)cc23)c1 [erlotinib]
# Outline: (§1)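 To prepare the extract, K562 pellets were dounce-homogenised in PBS pH 7.4 with 1 mM MgCl2, giving crude material at 1 mg/mL protein. This was treated with 10 μM compound for 30 min, then heated in aliquots for 3 min over 48°C-58°C before pooling and addition of NP-40 to 0.5% at 4°C. Centrifugation at 21,000xg for 90 min left soluble protein in the supernatant, which TMTpro 16plex LC-MS/MS quantified with equalised channel sums. Results are log-two fold changes in thermal stability compared with solvent controls, from duplicates.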
# [1] = compound: C/C(=N\NC(=O)C1=CC(=CC=C1)S(=O)(=O)N2CCOCC2)/C3=C(C=CC(=C3)Cl)O
# Outline: as §1
# [2] = compound: C1=CC(=CC=C1C2=NC3=C(N2)C=C(C=C3)C(=O)N)OC4=CC=C(C=C4)Cl
# Outline: as §1
# [3] = compound: C1=CC2=C(C=CC(=C2)/C=C\3/C(=O)NC(=NCC4=CC=CS4)S3)N=C1
# Outline: as §1
# [4] = compound: C1=CC2=NC=CN=C2C=C1/C=C/3\C(=O)NC(=O)S3
# Outline: as §1
# [5] = compound: C1=CC=C(C=C1)C2=NC(=C(N2)C3=CC=NC=C3)C4=CC(=C(C=C4)Cl)O
# Outline: as §1
# [6] = compound: C1=CC=C2C(=C1)C3=NNC4=CC=CC(=C43)C2=O
# Outline: as §1
# [7] = compound: C1CCN(C1)C(=O)NC2=CC=CC(=C2)NC3=NC=C(C(=N3)NCCC4=CN=CN4)Br
# Outline: as §1
# [8] = compound: C1CN(CCC1(CC2=CC=C(C=C2)Cl)N)C3=NC=NC4=C3C=CN4
# Outline: as §1
# IRAK-1-4 Inhibitor I = compound: C1COCCN1CCN2C3=CC=CC=C3N=C2NC(=O)C4=CC(=CC=C4)[N+](=O)[O-] [IRAK-1-4 Inhibitor I]
# Outline: as §1
Target,log2 fold change (erlotinib),log2 fold change [1],log2 fold change [2],log2 fold change [3],log2 fold change [4],log2 fold change [5],log2 fold change [6],log2 fold change [7],log2 fold change [8],log2 fold change (IRAK-1-4 Inhibitor I)
CYB5B (UniProt O43169),inactive: 0.009,inactive: 0.007,inactive: 0,inactive: -0.016,inactive: -0.037,inactive: -0.065,inactive: -0.016,inactive: -0.024,inactive: 0.085,inactive: 0.016
CWF19L2 (UniProt Q2TBE0),inactive: -0.049,inactive: -0.009,inactive: -0.011,inactive: 0.015,inactive: 0.054,inactive: 0.024,inactive: -0.03,inactive: -0.011,inactive: -0.041,inactive: -0.027
CWF19L1 (UniProt Q69YN2),inactive: -0.025,inactive: -0.04,inactive: 0.015,inactive: 0.002,inactive: 0.006,inactive: -0.017,inactive: -0.015,inactive: -0.018,inactive: 0.05,inactive: -0.022
CSTF1 (UniProt Q05048),inactive: -0.001,inactive: 0.013,inactive: -0.02,inactive: 0.013,inactive: -0.002,inactive: -0.024,inactive: 0.007,inactive: 0.001,inactive: 0.012,inactive: -0.014
CSDE1 isoform 4 (UniProt O75534),inactive: -0.025,inactive: 0.009,inactive: -0.035,inactive: 0.001,inactive: -0.023,inactive: -0.021,inactive: -0.002,inactive: 0.016,inactive: -0.001,inactive: -0.017
CTSH (UniProt P09668),inactive: 0.039,inactive: 0.004,inactive: 0.038,inactive: 0,inactive: -0.004,inactive: 0.019,inactive: 0.007,inactive: 0.018,inactive: 0.044,inactive: -0.04
CUL5 (UniProt Q93034),inactive: 0,inactive: -0.035,inactive: -0.008,inactive: -0.009,inactive: -0.006,inactive: -0.008,inactive: 0.023,inactive: 0.006,inactive: -0.003,inactive: 0.003
CUTA isoform 2 (UniProt O60888),inactive: 0.018,inactive: 0.035,inactive: -0.02,inactive: -0.005,inactive: -0.002,inactive: -0.014,inactive: -0.075,inactive: 0.02,inactive: 0.056,inactive: 0.037
CWC22 (UniProt Q9HCG8),inactive: 0.058,inactive: 0.006,inactive: -0.046,inactive: -0.009,inactive: -0.032,inactive: -0.025,inactive: -0.092,inactive: -0.014,inactive: -0.006,inactive: -0.017
CSPP1 (UniProt Q1MSJ5),inactive: -0.028,inactive: -0.094,inactive: 0.079,inactive: 0.017,inactive: -0.088,inactive: 0.021,inactive: -0.137,inactive: -0.02,inactive: 0.007,inactive: -0.026
CRCP (UniProt O75575),inactive: -0.074,inactive: -0.075,inactive: 0.028,inactive: -0.033,inactive: 0.022,inactive: -0.032,inactive: 0.052,inactive: -0.023,inactive: 0.023,inactive: 0.094
CRTC3 (UniProt Q6UUV7),inactive: 0.039,inactive: -0.268,inactive: 0.042,inactive: 0.06,inactive: -0.118,inactive: -0.017,inactive: -0.131,inactive: 0.029,inactive: -0.012,inactive: -0.011
CSNK2A1 (UniProt P68400),inactive: 0.005,inactive: -0.111,inactive: -0.02,inactive: 0.225,active: 0.356,inactive: 0.017,inactive: 0.219,inactive: 0.112,inactive: -0.02,inactive: 0
CYC1 (UniProt P08574),inactive: 0.001,inactive: 0.026,inactive: -0.04,inactive: 0.012,inactive: -0.014,inactive: 0.029,inactive: 0.116,inactive: 0.053,inactive: -0.056,inactive: -0.012
CUEDC2 (UniProt Q9H467),inactive: -0.011,inactive: 0.044,inactive: 0.032,inactive: 0.035,inactive: -0.02,inactive: 0,inactive: -0.039,inactive: 0.029,inactive: -0.106,inactive: 0.013
CRTAP (UniProt O75718),inactive: -0.032,inactive: 0.046,inactive: -0.012,inactive: -0.011,inactive: 0,inactive: 0.005,inactive: -0.004,inactive: 0.057,inactive: -0.014,inactive: -0.043
CTTN (UniProt Q14247),inactive: -0.042,inactive: -0.006,inactive: -0.04,inactive: -0.017,inactive: -0.026,inactive: -0.009,inactive: -0.018,inactive: 0.028,inactive: -0.023,inactive: -0.028
CYCS (UniProt P99999),inactive: -0.022,inactive: -0.121,inactive: -0.019,inactive: -0.006,inactive: 0.003,inactive: 0.008,inactive: 0.02,inactive: 0.011,inactive: 0.002,inactive: -0.005
CUTC (UniProt Q9NTM9),inactive: 0.019,inactive: -0.026,inactive: -0.026,inactive: 0.017,inactive: -0.006,inactive: -0.034,inactive: 0.003,inactive: 0.005,inactive: -0.023,inactive: 0.017
CSNK1A1 (UniProt P48729),inactive: -0.027,inactive: -0.106,inactive: 0.093,inactive: 0.028,inactive: 0.013,inactive: 0.217,active: 0.406,inactive: -0.082,inactive: -0.032,inactive: -0.038
CTH (UniProt P32929),inactive: 0.005,inactive: 0.03,inactive: 0,inactive: -0.009,inactive: 0.027,inactive: 0.013,inactive: -0.005,inactive: -0.01,inactive: 0.007,inactive: 0.034
CRTC1 (UniProt Q6UUV9),inactive: -0.046,inactive: 0.014,inactive: -0.035,inactive: -0.062,inactive: -0.074,inactive: 0.042,inactive: -0.148,inactive: 0.1,inactive: 0.036,inactive: 0.084
CT45A10 (UniProt P0DMU9),inactive: -0.004,inactive: 0.018,inactive: 0.024,inactive: 0.002,inactive: -0.025,inactive: -0.008,inactive: 0.031,inactive: -0.004,inactive: -0.004,inactive: -0.012
CSNK2A2 (UniProt P19784),inactive: 0,inactive: -0.209,inactive: -0.015,inactive: 0.383,active: 0.699,inactive: 0.032,inactive: 0.375,inactive: 0.277,inactive: 0.024,inactive: 0.022
CUL4B (UniProt Q13620),inactive: 0.006,inactive: 0.014,inactive: 0.022,inactive: 0.006,inactive: -0.027,inactive: -0.002,inactive: -0.002,inactive: -0.014,inactive: 0.018,inactive: 0.004
CRPPA (UniProt A4D126),inactive: -0.009,inactive: -0.006,inactive: -0.001,inactive: 0.032,inactive: -0.026,inactive: -0.012,inactive: -0.007,inactive: 0.01,inactive: -0.032,inactive: 0.063
CTSC (UniProt P53634),inactive: 0.006,inactive: -0.107,inactive: -0.008,inactive: 0.008,inactive: 0.019,inactive: 0.045,inactive: -0.044,inactive: -0.005,inactive: 0.017,inactive: 0.004
CTNNBL1 (UniProt Q8WYA6),inactive: 0.023,inactive: 0.052,inactive: 0.023,inactive: 0.018,inactive: 0.015,inactive: 0.103,inactive: -0.033,inactive: -0.042,inactive: -0.033,inactive: 0.088
CTR9 (UniProt Q6PD62),inactive: 0.019,inactive: 0.036,inactive: 0.036,inactive: -0.007,inactive: -0.011,inactive: -0.018,inactive: -0.02,inactive: -0.006,inactive: 0.004,inactive: 0.001
CREB3L2 (UniProt Q70SY1),inactive: -0.004,inactive: 0.013,inactive: -0.02,inactive: -0.187,inactive: -0.01,inactive: 0.027,inactive: 0.067,inactive: 0.007,inactive: 0.043,inactive: 0.03

# Part of the list above, limited to log2 fold change [8].
Target,log2 fold change [8]
CYB5B (UniProt O43169),inactive: 0.085
CRTAP (UniProt O75718),inactive: -0.014

# Reference: the supplement of paper PMC10849652
